One assay addresses T1, ELK3 (UniProt P41970).
T1 sequence: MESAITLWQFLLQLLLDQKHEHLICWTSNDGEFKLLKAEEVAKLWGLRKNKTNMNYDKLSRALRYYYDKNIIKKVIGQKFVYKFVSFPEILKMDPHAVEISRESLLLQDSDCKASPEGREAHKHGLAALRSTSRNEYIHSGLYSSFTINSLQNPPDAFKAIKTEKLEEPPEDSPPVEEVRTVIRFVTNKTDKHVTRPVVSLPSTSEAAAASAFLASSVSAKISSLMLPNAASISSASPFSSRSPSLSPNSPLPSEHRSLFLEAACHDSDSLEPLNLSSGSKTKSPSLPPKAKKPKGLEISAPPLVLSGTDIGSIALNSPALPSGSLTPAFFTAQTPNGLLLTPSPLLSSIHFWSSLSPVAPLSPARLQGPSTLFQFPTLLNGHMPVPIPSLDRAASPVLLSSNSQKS
Put plainly: DAPPL (digital affinity profiling via proximity ligation, sequencing). The note with it: 10 mM Tris-HCl pH 7.5, 50 mM NaCl, 1 mM DTT, 4% glycerol, room temperature, 30 min; GST-TFs on glutathione beads, 16-mer random dsDNA library, 0.1% …; high values mean tight binding; double strand, one strand shown; scale: fold enrichment (6-mer frequency, TF over GST control).

A further assay concerns the target T2, ETV3 (UniProt P41162-2).
T2 sequence: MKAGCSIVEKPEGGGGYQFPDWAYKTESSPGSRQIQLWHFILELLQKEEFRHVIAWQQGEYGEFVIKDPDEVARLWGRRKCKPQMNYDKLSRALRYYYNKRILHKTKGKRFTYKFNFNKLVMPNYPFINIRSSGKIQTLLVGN
Described as above. The note with it: 10 mM Tris-HCl pH 7.5, 50 mM NaCl, 1 mM DTT, 4% glycerol, room temperature, 30 min; GST-TFs on glutathione beads, 16-mer random dsDNA library, 0.1% …; high values mean tight binding; double strand, one strand shown; scale: fold enrichment (6-mer frequency, TF over GST control).

The list shows a part of the results, in another mix than the full data. At the low end of the ranking, values are background and their order means little.

For the sequence ATGGCG, the binding signal in the assay with ELK3 is 1.01; with ETV3, 1.09.
The like results for GTTCGC were, in that order, 0.994 and 0.96.
Sequence AGTTAA displayed a binding signal with ELK3 of 1.04.
Same read-out and setting: as for CATTCA, the figure is 1.16; as for TACACA, 1.18.
Turning to TTTAAC, the binding signal with ELK3 and with ETV3 was 1.21 throughout.
For the sequence TTATTA, the binding signal in the assay with ELK3 came to 1.2.
Same read-out and setting: as for TCCGCA, the figure is 2.24.
Sequence ACTCAA came in with a binding signal with ELK3 of 1.31.

The values above are taken from article PMC7862700.
